# Reference: PubChem BioAssay AID1332 (Southern Research Institute, 2008)
# The other results are listed elsewhere or left out. Further columns of the screen follow, without active or inactive calls.
# Test: Confirmatory growth inhibition assay, mycobacterium tuberculosis h37rv, with cytotoxicity (AID 1332);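 for CC50: Vero cells exposed to compounds for 72 hours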;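 for IC50: bacteria incubated 7 days before adding Alamar blue readout reagent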
# Settings: M. tuberculosis H37Rv growth inhibition; CC50: measured here: Vero cell cytotoxicity; IC50: measured here: IC50 H37Rv replicates
SMILES,IC50 [µg/mL],CC50 [µg/mL]
Oc1cc(O)c2c(c1)OC(c1ccc(O)c(O)c1)C(O)C2 (stereo not given),> 20,
Cc1cccc(C)c1NC(=O)CN1CCN(CCCC(c2ccc(F)cc2)c2ccc(F)cc2)CC1,3.73,
CCN1C[C@]2(C)CC[C@H](O)[C@]34C1[C@H](C[C@H]23)[C@@]1(O)C[C@H](OC)[C@H]2C[C@@H]4[C@@H]1C2O (stereo not given in full),> 20,
CC(=O)O[C@]1(C(C)=O)CC[C@H]2[C@@H]3C=C(C)C4=CC(=O)CC[C@]4(C)[C@H]3CC[C@@]21C,> 20,
O=C1C(O)=C(O)C(=O)C(O)=C1O,> 20,
Cc1nccn1CC1CCc2c(c3ccccc3n2C)C1=O (stereo not given),> 20,
NC(=O)c1cc[n+](CC2=C(C(=O)[O-])N3C(=O)[C@@H](NC(=O)Cc4cccs4)[C@H]3SC2)cc1,> 20,
COc1ccc2c(c1)c(CC(=O)OCC(=O)O)c(C)n2C(=O)c1ccc(Cl)cc1,> 20,
CC(C)(C)C(=O)OCOC(=O)[C@@H]1N2C(=O)[C@@H](N=CN3CCCCCC3)[C@H]2SC1(C)C,> 20,
CC(C)C[C@H]1C(=O)N2CCC[C@H]2[C@]2(O)O[C@](NC(=O)[C@@H]3C=C4c5cccc6[nH]cc(c56)C[C@H]4N(C)C3)(C(C)C)C(=O)N12,> 20,
O=C(CCCN1CCC2(CC1)C(=O)NCN2c1ccccc1)c1ccc(F)cc1,> 20,> 6
O=[N+]([O-])O[C@H]1CO[C@H]2[C@@H]1OC[C@H]2O[N+](=O)[O-],> 20,
CC1=C(C(=O)O)N2C(=O)[C@@H](NC(=O)[C@H](N)c3ccccc3)[C@H]2SC1,> 20,
C/C=C1/C[C@@H](C)[C@](O)(CO)C(=O)OCC2=CCN3CC[C@@H](OC1=O)[C@@H]23,> 20,
COc1cc2ccc(=O)oc2cc1O,> 20,
C=N[C@@H](C(=O)N[C@@H]1C(=O)N2[C@@H]1SC(C)(C)[C@@H]2C(=O)O)c1ccccc1,> 20,
C[C@]12CC[C@H]3[C@@H](CCC4=CC(=O)CC[C@@]43C)[C@@H]1CC[C@@H]2C(=O)CO,> 20,
O=c1[nH]oc2c1CCNC2,> 20,
Cc1cccc(Nc2ccncc2S(=O)(=O)NC(=O)NC(C)C)c1,> 20,
CC(=O)CC(c1ccc([N+](=O)[O-])cc1)c1c(O)c2ccccc2oc1=O (stereo not given),> 20,
CCCCCCCCNC(C)C(O)c1ccc(SC(C)C)cc1 (stereo not given),2.07,4.22
CC[N+]1(C)[C@@H]2CC[C@H]1CC(OC(=O)[C@H]1CCC(C(=O)OC3C[C@H]4CC[C@@H](C3)[N+]4(C)CC)(c3ccccc3)c3ccccc31)C2 (stereo not given in full),> 20,
COc1ccc2nc(S(=O)Cc3ncc(C)c(OC)c3C)[nH]c2c1 (stereo not given),> 20,
COc1ccc2c3c1O[C@H]1C[C@@H](O)C=C[C@@]31CCN(C)C2,> 20,
CC1(C)S[C@@H]2[C@H](NC(=O)COc3ccccc3)C(=O)N2[C@H]1C(=O)O,> 20,
Cc1nnc(SCC2=C(C(=O)O)N3C(=O)[C@@H](NC(=O)Cn4cnnn4)[C@H]3SC2)s1,> 20,

# At a glance, part of the list above.
SMILES,IC50 [µg/mL],CC50 [µg/mL]
C/C=C1/C[C@@H](C)[C@](O)(CO)C(=O)OCC2=CCN3CC[C@@H](OC1=O)[C@@H]23,> 20,
COc1cc2ccc(=O)oc2cc1O,> 20,
C=N[C@@H](C(=O)N[C@@H]1C(=O)N2[C@@H]1SC(C)(C)[C@@H]2C(=O)O)c1ccccc1,> 20,

# The list continues.

SMILES,IC50 [µg/mL],CC50 [µg/mL]
COc1c2ccoc2nc2c(OC)c(OC[C@@H](O)C(C)(C)O)ccc12,> 20,
NC(=O)OCC(O)COc1ccc(Cl)cc1 (stereo not given),> 20,
CN1C(C(=O)Nc2ccccn2)=C(O)c2ccccc2S1(=O)=O,> 20,
COCCOC(=O)C1=C(C)NC(C)=C(C(=O)OC(C)C)C1c1cccc([N+](=O)[O-])c1 (stereo not given),> 20,
CC[C@@H](CO)NC(=O)[C@@H]1C=C2c3cccc4[nH]cc(c34)C[C@H]2N(C)C1,> 20,
Cc1ccc(C)c(OCCCC(C)(C)C(=O)O)c1,> 20,
CNCCC=C1c2ccccc2C=Cc2ccccc21,7.8,> 6
CC(C[N+](C)(C)C)OC(N)=O (stereo not given),> 20,
COc1ccc2c(c1OC)C(=O)O[C@@H]2[C@H]1c2cc3c(cc2CCN1C)OCO3,> 20,
COc1ccc2c(c1)C(=O)N(CCc1ccc(S(=O)(=O)NC(=O)NC3CCCCC3)cc1)C(=O)C2(C)C,> 20,
CN(C)CCN(Cc1ccc(Cl)cc1)c1ccccn1,> 20,
COc1ccc([C@@H]2Sc3ccccc3N(CCN(C)C)C(=O)[C@@H]2OC(C)=O)cc1,> 20,
C[C@@H]1C[C@@H]([C@H](O)CC2CC(=O)NC(=O)C2)C(=O)[C@@H](C)C1,> 20,0.108
Cc1c(NC(C)C)c(=O)n(-c2ccccc2)n1C,> 20,
C=CC[N@@+]12CC[C@]34c5ccccc5N5/C=C6\C7N(/C=C(\C53)[C@@H](C[C@@H]41)/C(=C/CO)C2)c1ccccc1[C@@]71CC[N@@+]2(CC=C)C/C(=C\CO)[C@@H]6C[C@@H]12 (stereo not given in full),> 20,
Nc1nc2c(ncn2COC(CO)CO)c(=O)[nH]1,> 20,
CC(NC(C)(C)C)C(=O)c1cccc(Cl)c1 (stereo not given),> 20,
NCCCCCC(=O)O,> 20,
CCCNC(=O)NS(=O)(=O)c1ccc(Cl)cc1,> 20,
CCN(CC)C(C)CN1c2ccccc2Sc2ccccc21 (stereo not given),> 20,
CN(C)[C@@H]1C(=O)C(C(N)=O)=C(O)[C@@]2(O)C(=O)C3=C(O)c4c(O)cccc4[C@@](C)(O)[C@H]3C[C@@H]12,2.71,
Clc1cccc(Cl)c1NC1=NCCN1,> 20,
Cc1cc2nc3c(=O)[nH]c(=O)nc-3n(C[C@H](O)[C@H](O)[C@H](O)CO)c2cc1C,> 20,
NCC(CC(=O)O)c1ccc(Cl)cc1 (stereo not given),> 20,
O=C1NCC2(CCN(CCc3ccccc3)CC2)O1,> 20,
